Test results as given in the supplement of paper PMC12889115.
Some of the results follow. Values are raw readings; no control value is given beside them.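 In the initial screen, polymyxin B was used at a concentration that permeabilizes Salmonella's outer membrane but not its inner membrane. Maximum growth was set by DMSO wells with or without polymyxin B. Since plates varied, data were ranked per plate, and compounds giving the lowest OD600 advanced as hits.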

Tested on: Salmonella enterica serovar Typhimurium SL1344
Assay: bacterial growth OD600 after 18 h with compound and polymyxin B; higher = more bacterial growth (less inhibition)
Settings: 50 µM, Mueller-Hinton broth

| SMILES | bacterial growth OD600 (polymyxin B 1 µg/mL) | bacterial growth OD600 (polymyxin B 0.75 µg/mL) |
| --- | --- | --- |
| COc1cc(CN2CCC(n3nccc3NC(=O)c3ccccc3)CC2)cc2c1OCO2 | 0.921 |  |
| O=S(=O)(c1cccnc1)N1CCc2onc(-c3ccc(F)c(F)c3)c2C1 |  | 0.876 |
| COc1cccc(CCC2CCCN(C(=O)c3n[nH]c4c3CCC4)C2)c1 (stereo unspecified) |  | 0.387 |
| CN(Cc1ccc2nsnc2c1)C(=O)c1cc(COc2cccc(F)c2)[nH]n1 | 0.554 |  |
| COc1ccccc1CN1CCC(c2nc(-c3ccncc3)ncc2-c2cccc(C)c2)CC1 |  | 0.784 |
| CC1(C)Cc2nc(N3CCC(O)CC3)ncc2C(NC2CCCC2)C1 (stereo unspecified) |  | 0.887 |
| O=C(c1csnn1)N1CCc2[nH]nc(-c3ccc(-c4ccccc4)cc3)c2C1 |  | 0.561 |
| O=C(c1ccc(NC2CC2)nc1)N1CCCCC1CCn1cccn1 (stereo unspecified) | 0.947 |  |
| Cc1nc2sccn2c1CN1CCC(C(Cc2ccccc2)N(C)C(=O)C2CCOCC2)CC1 (stereo unspecified) |  | 0.838 |
| CN(CCc1ccccc1)Cc1nc(Cc2cccc(C(F)(F)F)c2)no1 | 1.03 |  |
| Cc1nccn1-c1ccc(NC(=O)C2CCCN(Cc3ccc4c(c3)CCO4)C2)cc1 (stereo unspecified) | 0.888 |  |
| COc1ccc(C(=O)N(Cc2ccc(OC)c(OCc3cccs3)c2)C2CCCC2)c(OC)c1 |  | 0.002 |
| CC(=O)c1cccc(CN2CCC(CCC(=O)Nc3ccccc3Cl)CC2)c1 | 0.887 |  |
| CN(Cc1nc(C(c2ccccc2)c2ccccc2)no1)C1CCOCC1 | 0.787 |  |
| CCCC(=O)N1CCC2(CCCN(Cc3cccc(F)c3F)C2=O)C1 (stereo unspecified) | 1.1 |  |
| Cc1cc(C)n(Cc2cc(C(=O)N(C)CCOc3ccccc3)n[nH]2)n1 | 0.874 |  |

Nothing new here: entries from further up.

| SMILES | bacterial growth OD600 (polymyxin B 1 µg/mL) | bacterial growth OD600 (polymyxin B 0.75 µg/mL) |
| --- | --- | --- |
| COc1ccccc1CN1CCC(c2nc(-c3ccncc3)ncc2-c2cccc(C)c2)CC1 |  | 0.784 |
| CC1(C)Cc2nc(N3CCC(O)CC3)ncc2C(NC2CCCC2)C1 (stereo unspecified) |  | 0.887 |

(continued)

| SMILES | bacterial growth OD600 (polymyxin B 1 µg/mL) | bacterial growth OD600 (polymyxin B 0.75 µg/mL) |
| --- | --- | --- |
| CCCCNC(=O)C1CCCN(C2CCN(Cc3ccccc3)CC2)C1 (stereo unspecified) |  | 0.59 |
| COc1cccc(N2C(=O)CN(CCC(C)C)CC2C)c1 (stereo unspecified) |  | 0.786 |
| COc1ccc(/C=C/CN2CCCC(CNC(=O)c3cccs3)C2)cc1 (stereo unspecified) | 0.9 |  |
| COC(=O)[C@@H](NC(=O)CCC1(Cc2ccc3ccccc3c2)CCC(=O)N1)C(C)C (stereo partly specified) |  | 0.759 |
| CCOC(=O)N1CCC(NC2CCN(c3ccc(CC(=O)NCc4ccccc4)cc3)CC2)CC1 |  | 0.824 |
| CC1=C(C(=O)N2CCC(C3CCN(c4ncccn4)CC3)C2)OCCO1 (stereo unspecified) |  | 0.836 |
| Cc1ccc(CN2CCC(n3nccc3NC(=O)c3ccccc3)CC2)s1 |  | 0.738 |
| CNC(=O)CC(c1ccccc1)c1ccc2c(c1)OCO2 (stereo unspecified) |  | 0.793 |
| COCC(=O)Nc1cc(C(=O)N2CCN(Cc3ncccc3C)CC2)c2c(c1)nc(C1CCC1)n2C |  | 0.805 |
| Cc1nc(CN2CCN(C(=O)Cn3nnnc3CN3CCCC3)CC2)cs1 |  | 0.842 |
| COc1ccccc1CCN1CCC(CN(C)C(=O)c2occc2C)CC1 |  | 0.781 |
| COC(=O)c1ccc(N2CCN(C(=O)CC3C(=O)NCCN3Cc3ccccc3)CC2)cc1 (stereo unspecified) | 1.29 |  |
| COc1ccccc1CCc1nnc(CCC(=O)NCc2cc(F)ccc2C)o1 |  | 0.738 |
| C[C@@H]1CN(C(=O)c2cc(COc3c(F)cccc3F)on2)C[C@H](C)O1 |  | 0.824 |
| CCN1CCCC1CNC(=O)C1CCN(c2nc(-c3ccccc3)nc3c2CCC3)CC1 (stereo unspecified) | 0.118 |  |
